# This is one part of the list. Many values rest on one well or one pass, so single values are uncertain.
# Tested on: Saccharomyces cerevisiae BY4743
# Experiment: growth (OD600) with compound + IPBC relative to untreated control; higher = less growth inhibition
# Conditions: compound concentration: 133 uM; IPBC concentration: 0.5 ug/ml; 20 h
# Description: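 NMCCC compounds (133 uM) combined with IPBC (0.5 ug/ml) against Saccharomyces cerevisiae BY4743 in YPD, 96-well plates. Growth was read as OD600 at 20 h and expressed as % of the untreated control. Single pass.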
row,SMILES,growth
1,COC(=O)c1cccc2c1CCCN2Cc1ncc(C(C)(C)C)o1 + CCCCNC(=O)OCC#CI [3-iodo-2-propynyl butylcarbamate (IPBC)],98.6%
2,CCCc1ccc(C(O)CSc2nnc(O)n2C2CC2)cc1 (stereo not drawn) + CCCCNC(=O)OCC#CI [3-iodo-2-propynyl butylcarbamate (IPBC)],102%
3,COC1=CC=C(OC)C(=C1)C(=O)OCC(=O)N\2CC\C(=N2)C3=CC=CC=C3 + CCCCNC(=O)OCC#CI [3-iodo-2-propynyl butylcarbamate (IPBC)],97.6%
4,Nc1nnc(SCc2nc(-c3cccc(C(F)(F)F)c3)no2)s1 + CCCCNC(=O)OCC#CI [3-iodo-2-propynyl butylcarbamate (IPBC)],99.2%
5,Cc1cc(C)c(S(=O)(=O)NCC(=O)Nc2ccc(C(N)=O)cc2)c(C)c1 + CCCCNC(=O)OCC#CI [3-iodo-2-propynyl butylcarbamate (IPBC)],86.3%
6,CC(C)CC(=O)NC(C)C(c1cccs1)N1CCN(c2ccccc2)CC1 (stereo not drawn) + CCCCNC(=O)OCC#CI [3-iodo-2-propynyl butylcarbamate (IPBC)],102%
7,CCN1CCCC1CNC(=O)c1cnc(SC)nc1-c1ccccc1 (stereo not drawn) + CCCCNC(=O)OCC#CI [3-iodo-2-propynyl butylcarbamate (IPBC)],106%
8,C1CCC(CC1)N\C2=N\N=C(/CS2)C3=CC=C[NH]3 + CCCCNC(=O)OCC#CI [3-iodo-2-propynyl butylcarbamate (IPBC)],75.6%

# From no. 1 up to 2, as listed above:
row,SMILES,growth
1,COC(=O)c1cccc2c1CCCN2Cc1ncc(C(C)(C)C)o1 + CCCCNC(=O)OCC#CI [3-iodo-2-propynyl butylcarbamate (IPBC)],98.6%
2,CCCc1ccc(C(O)CSc2nnc(O)n2C2CC2)cc1 (stereo not drawn) + CCCCNC(=O)OCC#CI [3-iodo-2-propynyl butylcarbamate (IPBC)],102%
